Experimental data: PubChem BioAssay AID652243 (Drosophila RNAi Screening Center, 2013)
Purpose: 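Fly genes required for human androgen receptor driven transcription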 (primary screen). System: Drosophila S2R+ cells. Knock-down reagent: long dsRNA against Drosophila genes. Timing: 72 h (48 h, then 24 h hormone). Conditions: synthetic androgen R1881 at 10 nM for 24 h. Detection: 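Firefly light from an androgen-responsive reporter and Renilla control light per well, raw and unnormalised, for each of two replicates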. Reading the numbers: firefly reporter light: higher = more light from androgen-responsive reporter; Renilla control light: higher = more constitutive control signal (cell number, transfection). Rule for the call: 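Hit when the log firefly-to-Renilla ratio dropped or increased by a fixed fold versus the mean of GFP or LacZ controls across duplicate plates; lowering cut given as 1.5 and as 3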. Calls: active = hit: reporter lowered or raised; inactive = no hit.
In all, the deposit lists about 24,000 reagents; below is a random part of those with a known target gene and a result. Of all reagents, 246 (1%) are marked active. 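Plates not normalised; calls are printed but the firefly/Renilla ratio behind them is not deposited; fold cut for lowering reported inconsistently.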 Raw values are not corrected between plates. Reagents against one gene are numbered here. The record does not give: the amount of reagent.

gene | reagent no. | firefly reporter light, replicate 1 | firefly reporter light, replicate 2 | Renilla control light, replicate 1 | Renilla control light, replicate 2 | Call
mib1 | 1 | 2.42e5 | 2.06e5 | 2.16e6 | 1.80e6 | inactive
CG14340 | 1 | 1.04e5 | 1.12e5 | 6.57e5 | 8.75e5 | inactive
Rga | 1 | 6.77e5 | 5.76e5 | 1.73e6 | 1.52e6 | inactive
dpr15 | 1 | 1.59e5 | 1.30e5 | 14565 | 1.63e5 | inactive
dpr15 | 2 | 1.23e5 | 1.21e5 | 2.44e6 | 2.59e6 | inactive
dpr15 | 3 | 1.25e5 | 2.31e5 | 2.16e6 | 2.40e6 | inactive
tn (retired record) | 1 | 1.43e5 | 1.29e5 | 4.47e5 | 4.18e5 | inactive
tn (retired record) | 2 | 4.91e5 | 5.96e5 | 1.18e6 | 1.24e6 | inactive
tn (retired record) | 3 | 2.33e5 | 2.69e5 | 4.80e5 | 7.26e5 | inactive
CG14546 | 1 | 1.30e5 | 1.47e5 | 2.26e6 | 1.91e6 | inactive
Asciz | 1 | 60867 | 91190 | 6.47e5 | 6.39e5 | inactive
Kcmf1 | 1 | 40047 | 43812 | 1.92e5 | 2.31e5 | inactive
Kcmf1 | 2 | 5.09e5 | 4.08e5 | 1.02e6 | 8.88e5 | inactive
mid | 1 | 4.78e5 | 4.47e5 | 3.70e6 | 2.80e6 | inactive
mid | 2 | 9.60e5 | 6.06e5 | 4.16e6 | 2.49e6 | inactive
mid | 3 | 4.90e5 | 7.11e5 | 4.60e5 | 6.49e5 | inactive
NfI | 1 | 2.76e5 | 2.92e5 | 4.67e6 | 3.32e6 | inactive
CG12123 | 1 | 1.11e5 | 91939 | 4.67e5 | 7.29e5 | inactive
CG7083 | 1 | 2.02e5 | 2.23e5 | 2.49e6 | 2.69e6 | inactive
CG7083 | 2 | 6.04e5 | 8.46e5 | 8.52e5 | 9.24e5 | inactive
Dhod | 1 | 69652 | 59956 | 5.46e5 | 4.23e5 | inactive
kuz | 1 | 1.61e5 | 1.55e5 | 1.46e6 | 1.66e6 | inactive
CG8925 | 1 | 2.16e5 | 2.92e5 | 2.59e6 | 3.07e6 | inactive
CG8925 | 2 | 1.91e5 | 2.40e5 | 3.58e6 | 3.56e6 | inactive
CG8925 | 3 | 3.09e5 | 3.31e5 | 3.37e6 | 3.42e6 | inactive
CG5217 | 1 | 2.83e5 | 3.27e5 | 2.77e6 | 2.62e6 | inactive
Ir20a | 1 | 1.18e5 | 1.22e5 | 2.39e5 | 2.23e5 | inactive
Cdk5 | 1 | 1.03e6 | 1.17e6 | 2.46e6 | 3.15e6 | inactive
Cdk5 | 2 | – | – | – | – | inactive
CG10950 | 1 | 60462 | 79119 | 1.50e6 | 1.50e6 | inactive
gudu | 1 | 2.89e5 | 2.62e5 | 2.72e6 | 2.02e6 | inactive
CG15394 | 1 | 55721 | 46806 | 5.39e5 | 4.52e5 | inactive
Cpr72Ec | 1 | 1.05e5 | 46914 | 4.92e5 | 4.37e5 | inactive
Pur-alpha | 1 | 1.06e5 | 99997 | 1.03e6 | 1.05e6 | inactive
wda | 1 | 4.94e5 | 4.69e5 | 2.82e6 | 2.92e6 | inactive
wda | 2 | 9.01e5 | 9.65e5 | 2.86e5 | 2.55e5 | inactive
CG10559 | 1 | 2.32e5 | 3.67e5 | 2.83e6 | 2.72e6 | inactive
CG10559 | 2 | 4.73e5 | 4.08e5 | 1.04e6 | 1.13e6 | inactive
CG4572 | 1 | 51141 | 48189 | 3.75e5 | 3.56e5 | inactive
DppIII | 1 | 1.00e5 | 1.19e5 | 1.66e6 | 1.68e6 | inactive
DppIII | 2 | 2.05e5 | 1.72e5 | 3.97e5 | 6.97e5 | inactive
dos | 1 | 16928 | 38733 | 96333 | 1.33e5 | inactive
dos | 2 | 68252 | 30478 | 5.98e5 | 4.71e5 | inactive
dos | 3 | 5.41e5 | 4.97e5 | 3.66e5 | 2.96e5 | inactive
CG30020 | 1 | 2.34e5 | 2.79e5 | 2.52e6 | 3.44e6 | inactive
CG30020 | 2 | 3.11e5 | 2.64e5 | 2.37e6 | 1.79e6 | inactive
Ret | 1 | 5.87e5 | 5.15e5 | 2.60e6 | 1.91e6 | inactive
Ret | 2 | 94004 | 1.05e5 | 8.93e5 | 1.20e6 | inactive
Ret | 3 | – | – | – | – | inactive
CG17732 | 1 | 2.56e5 | 2.51e5 | 2.47e6 | 2.39e6 | inactive
RpS10b | 1 | 2.29e5 | 2.04e5 | 1.47e6 | 1.65e6 | inactive
fal | 1 | 26184 | 14828 | 2.65e5 | 1.85e5 | inactive
mdlc | 1 | 93177 | 79587 | 5.06e5 | 5.97e5 | inactive
mdlc | 2 | 3.78e5 | 3.24e5 | 1.58e6 | 1.43e6 | inactive
CG9338 | 1 | 1.68e6 | 1.13e6 | 3.70e6 | 2.95e6 | inactive
CG9338 | 2 | 1.10e6 | 5.91e5 | 1.13e6 | 1.33e6 | inactive
mRpL45 | 1 | 1.48e5 | 2.01e5 | 2.01e6 | 2.02e6 | inactive
CG10962 | 1 | 93948 | 1.03e5 | 8.86e5 | 6.36e5 | inactive
CG10962 | 2 | 2.26e5 | 2.64e5 | 3.11e5 | 3.11e5 | inactive
mRpS23 | 1 | 2.68e5 | 3.97e5 | 6.55e5 | 6.06e5 | inactive
CG7990 | 1 | 7.95e5 | 9.26e5 | 1.57e6 | 1.39e6 | inactive
CG7990 | 2 | 8.69e5 | 8.11e5 | 1.59e6 | 1.40e6 | inactive
CG7990 | 3 | 3.69e5 | 2.79e5 | 6.71e5 | 7.70e5 | inactive
CG14332 | 1 | 3.21e5 | 3.00e5 | 3.17e6 | 2.77e6 | inactive
E(spl)m6-BFM | 1 | 2.35e5 | 2.53e5 | 2.43e6 | 2.45e6 | inactive
Ekar | 1 | 2.68e5 | 3.11e5 | 3.66e6 | 2.98e6 | inactive
Ekar | 2 | 1.10e6 | 1.15e6 | 9.14e5 | 1.27e6 | inactive
Hex-A | 1 | 1.87e5 | 1.85e5 | 1.85e6 | 1.81e6 | inactive
Hex-A | 2 | 6.92e5 | 3.26e5 | 5.44e5 | 4.59e5 | inactive
Hex-A | 3 | – | – | – | – | inactive
Rpn7 | 1 | 45751 | 45345 | 3.72e5 | 2.97e5 | inactive
Rpn7 | 2 | 4.42e5 | 4.42e5 | 5.84e5 | 5.50e5 | inactive
Grip84 | 1 | 23231 | 82619 | 1.96e5 | 4.01e5 | inactive
Grip84 | 2 | 4.03e5 | 3.67e5 | 5.03e5 | 4.58e5 | inactive

Entries above whose gene name begins with K or k:
gene | reagent no. | firefly reporter light, replicate 1 | firefly reporter light, replicate 2 | Renilla control light, replicate 1 | Renilla control light, replicate 2 | Call
Kcmf1 | 1 | 40047 | 43812 | 1.92e5 | 2.31e5 | inactive
Kcmf1 | 2 | 5.09e5 | 4.08e5 | 1.02e6 | 8.88e5 | inactive
kuz | 1 | 1.61e5 | 1.55e5 | 1.46e6 | 1.66e6 | inactive
